# Experimental data reported in patent publication US8404664B2, “Phosphonated Rifamycins and uses thereof for the prevention and treatment of bone and joint infections” (Targanta Therapeutics, Inc., priority 2005, dated 2013).
# Assay: Bone powder binding in vitro (microbiological assay detection)
# Conditions: 1 mg/ml compound in bone meal powder slurry 10 mg/ml in PBS, 37° C., 1 h
row,Compound,% Bone binding [%]
1,CO[C@H]1/C=C/O[C@@]2(C)Oc3c(C)c(O)c4c(=O)c(c5oc6cc(N7CCN(CCC(=O)c8ccc(OCCCC(P(=O)(O)O)P(=O)(O)O)cc8)CC7)cc(O)c6nc-5c4c3C2=O)NC(=O)/C(C)=C\C=C\[C@H](C)[C@H](O)[C@@H](C)[C@@H](O)[C@@H](C)[C@H](OC(C)=O)[C@@H]1C [Compound 71],99.9
2,CO[C@H]1/C=C/O[C@@]2(C)Oc3c(C)c(O)c4c(=O)c(c5oc6cc(N7CCC(OC(=O)CCC(=O)NC(P(=O)(O)O)P(=O)(O)O)CC7)cc(O)c6nc-5c4c3C2=O)NC(=O)/C(C)=C\C=C\[C@H](C)[C@H](O)[C@@H](C)[C@@H](O)[C@@H](C)[C@H](OC(C)=O)[C@@H]1C [Compound 68],99.9
3,"CO[C@H]1/C=C/O[C@@]2(C)Oc3c(C)c(O)c4c(=O)c(c5oc6cc(N7CCN(CC(C)C)CC7)cc(O)c6nc-5c4c3C2=O)NC(=O)/C(C)=C\C=C\[C@H](C)[C@H](OC(=O)CCCOC(=O)CCC(=O)NC(P(=O)(O)O)P(=O)(O)O)[C@@H](C)[C@@H](O)[C@@H](C)[C@H](OC(C)=O)[C@@H]1C [Compound 81, 21-O-(4-((3-(bisphosphonomethyl)carbamoyl)propanoyloxy)butanoyl)-1′,4-Didehydro-1-deoxy-1,4-dihydro-3′-hydroxy-5′-[4-(2-methylpropyl)-1-piperazinyl]-1-oxorifamycin VIII]",94.8
4,"CCN(CC)CC.CCN(CC)CC.CO[C@H]1/C=C/O[C@@]2(C)Oc3c(C)c(O)c4c(=O)c(c5oc6cc(N7CCN(CC(C)C)CC7)cc(O)c6nc-5c4c3C2=O)NC(=O)/C(C)=C\C=C\[C@H](C)[C@H](OC(=O)CCC(=O)NCCC(=O)NC(P(=O)(O)O)P(=O)(O)O)[C@@H](C)[C@@H](O)[C@@H](C)[C@H](OC(C)=O)[C@@H]1C [Compound 78, 21-O-(3-(2-((bisphosphonomethyl)carbamoyl)ethylcarbamoyl)propanoyl)-1′,4-Didehydro-1-deoxy-1,4-dihydro-3′-hydroxy-5′-[4-(2-methylpropyl)-1-piperazinyl]-1-oxorifamycin VIII]",99.9
5,"CCN(CC)CC.CCN(CC)CC.CO[C@H]1/C=C/O[C@@]2(C)Oc3c(C)c(O)c4c(c3C2=O)C2=NC3(CCN(CC(C)C)CC3)NC2=C(NC(=O)/C(C)=C\C=C\[C@H](C)[C@H](OC(=O)CCC(=O)NCCCC(=O)NC(P(=O)(O)O)P(=O)(O)O)[C@@H](C)[C@@H](O)[C@@H](C)[C@H](OC(C)=O)[C@@H]1C)C4=O [Compound 45, 21-O-(3-(3-((bisphosphonomethyl)carbamoyl)propylcarbamoyl)propanoyl)-1′,4-didehydro-1-deoxy-1,4-dihydro-5′-(2-methylpropyl)-1-oxorifamycin XIV]",99.8
6,3-(((4-(2-(3-((bisphosphonomethyl)carbamoyl)propanoyloxy)ethyl)-1-piperazinyl)imino)methyl)rifamycin [Compound 11],95
7,CO[C@H]1/C=C/O[C@@]2(C)Oc3c(C)c(O)c4c(=O)c(c5oc6cc(N7CCN(CCOC(=O)CCC(=O)NC(P(=O)(O)O)P(=O)(O)O)CC7)cc(O)c6nc-5c4c3C2=O)NC(=O)/C(C)=C\C=C\[C@H](C)[C@H](O)[C@@H](C)[C@@H](O)[C@@H](C)[C@H](OC(C)=O)[C@@H]1C.N.N [Compound 62],99.8
8,"CO[C@H]1/C=C/O[C@@]2(C)Oc3c(C)c(O)c4c(=O)c(c5oc6cc(N7CCN(CC(C)C)CC7)cc(O)c6nc-5c4c3C2=O)NC(=O)/C(C)=C\C=C\[C@H](C)[C@H](OC(=O)COC(=O)CCC(=O)NC(P(=O)(O)O)P(=O)(O)O)[C@@H](C)[C@@H](O)[C@@H](C)[C@H](OC(C)=O)[C@@H]1C [Compound 84, 21-O-(2-((3-(bisphosphonomethyl)carbamoyl)propanoyloxy)acetyl)-1′,4-Didehydro-1-deoxy-1,4-dihydro-3′-hydroxy-5′-[4-(2-methylpropyl)-1-piperazinyl]-1-oxorifamycin VIII]",99.8
9,CCN(CC)CC.CCN(CC)CC.CO[C@H]1/C=C/O[C@@]2(C)Oc3c(C)c(O)c4c(c3C2=O)C2=NC3(CCN(CC(C)C)CC3)N(C(=O)OCOC(=O)CCCC(P(=O)(O)O)P(=O)(O)O)C2=C(NC(=O)/C(C)=C\C=C\[C@H](C)[C@H](O)[C@@H](C)[C@@H](O)[C@@H](C)[C@H](OC(C)=O)[C@@H]1C)C4=O [Compound 50],96.8
